Reference: patent publication US9090654 (dated 2015)

Assay: general procedure: peptide synthesis; chloromethylated polystyrene resin; diisopropylcarbodiimide (DIC)
Settings: whole synthesis, scale 1.3 mmoles eq.

Q: Which results are given for “H-D-β-Nal-Cys(Acm)-Tyr-D-Trp-Lys-Val-Cys(Acm)-Thr-NH2”?
A: crude HPLC purity (220 nm): 96%; crude mass: 870 mg
